From publication PMC11054660 come the findings set out here.

These are yes or no findings as the source states them, for the method shown. Sequences can lack the tags named with a protein.

The target in test [1] is T1, T4 gp27 with a C-terminal 11xHis-tag (gp27-C), purified (bacteriophage T4), P17172.
T1 chain: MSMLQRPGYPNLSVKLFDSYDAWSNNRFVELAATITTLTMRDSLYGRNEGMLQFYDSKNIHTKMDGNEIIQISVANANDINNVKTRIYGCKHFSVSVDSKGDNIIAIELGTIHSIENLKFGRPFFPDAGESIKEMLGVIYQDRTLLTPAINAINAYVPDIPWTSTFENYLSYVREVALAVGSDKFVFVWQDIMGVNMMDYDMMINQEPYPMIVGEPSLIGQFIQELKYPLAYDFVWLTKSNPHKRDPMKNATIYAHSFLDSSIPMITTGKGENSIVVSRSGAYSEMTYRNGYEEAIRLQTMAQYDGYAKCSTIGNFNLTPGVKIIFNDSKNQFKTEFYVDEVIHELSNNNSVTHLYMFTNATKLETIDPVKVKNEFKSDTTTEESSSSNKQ
Briefly: SEC-MALS; Superdex 200 increase 10/300 GL, 20 mM Tris-HCl pH 8, 150 mM NaCl, 0.5 mL/min; both purified. The note with it: remark: other sources report otherwise. On the technique in general: In gel filtration, larger molecules generally elute earlier.

For test [2], the target named is T2, T4 gp27 with an N-terminal 10xHis-tag (gp27-N), purified (bacteriophage T4), P17172.
T2 chain: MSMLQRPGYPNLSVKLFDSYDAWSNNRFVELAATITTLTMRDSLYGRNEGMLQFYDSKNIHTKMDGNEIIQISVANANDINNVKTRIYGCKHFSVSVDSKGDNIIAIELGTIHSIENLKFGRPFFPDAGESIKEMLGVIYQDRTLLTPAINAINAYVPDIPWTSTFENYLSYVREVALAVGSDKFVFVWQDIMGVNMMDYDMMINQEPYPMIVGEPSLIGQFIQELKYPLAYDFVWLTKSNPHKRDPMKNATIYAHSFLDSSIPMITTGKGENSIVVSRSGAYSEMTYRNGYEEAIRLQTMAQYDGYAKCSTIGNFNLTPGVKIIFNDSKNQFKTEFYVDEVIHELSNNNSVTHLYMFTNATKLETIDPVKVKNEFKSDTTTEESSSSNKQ
The test is described as above. The note with it: remark: other sources report otherwise.

B1: T4 gp27 with a C-terminal 11xHis-tag (gp27-C), purified, P17172 1-391 (protein)
chain: MSMLQRPGYPNLSVKLFDSYDAWSNNRFVELAATITTLTMRDSLYGRNEGMLQFYDSKNIHTKMDGNEIIQISVANANDINNVKTRIYGCKHFSVSVDSKGDNIIAIELGTIHSIENLKFGRPFFPDAGESIKEMLGVIYQDRTLLTPAINAINAYVPDIPWTSTFENYLSYVREVALAVGSDKFVFVWQDIMGVNMMDYDMMINQEPYPMIVGEPSLIGQFIQELKYPLAYDFVWLTKSNPHKRDPMKNATIYAHSFLDSSIPMITTGKGENSIVVSRSGAYSEMTYRNGYEEAIRLQTMAQYDGYAKCSTIGNFNLTPGVKIIFNDSKNQFKTEFYVDEVIHELSNNNSVTHLYMFTNATKLETIDPVKVKNEFKSDTTTEESSSSNKQ
In the case of B1, the binding result in test [1] is reported as “no binding”.

B2: T4 gp27 with an N-terminal 10xHis-tag (gp27-N), purified, P17172 1-391 (protein)
chain: MSMLQRPGYPNLSVKLFDSYDAWSNNRFVELAATITTLTMRDSLYGRNEGMLQFYDSKNIHTKMDGNEIIQISVANANDINNVKTRIYGCKHFSVSVDSKGDNIIAIELGTIHSIENLKFGRPFFPDAGESIKEMLGVIYQDRTLLTPAINAINAYVPDIPWTSTFENYLSYVREVALAVGSDKFVFVWQDIMGVNMMDYDMMINQEPYPMIVGEPSLIGQFIQELKYPLAYDFVWLTKSNPHKRDPMKNATIYAHSFLDSSIPMITTGKGENSIVVSRSGAYSEMTYRNGYEEAIRLQTMAQYDGYAKCSTIGNFNLTPGVKIIFNDSKNQFKTEFYVDEVIHELSNNNSVTHLYMFTNATKLETIDPVKVKNEFKSDTTTEESSSSNKQ
Consider B2, for which the binding entry in test [2] is “no binding”.
